System: A2780 (cisplatin sensitive ovarian cancer cell line)
Assay: In vitro chemosensitivity (MTT) assay, A2780
Assay type: cell-based, human
Details: 24 h exposure, 72 h recovery, mean ± SD
Procedure: In vitro chemosensitivity tests were performed against HCT116 (colorectal cancer cell line), A2780 and A2780cisR (cisplatin sensitive and cisplatin resistant ovarian cancer cell lines, respectively). Cancer cell lines were routinely maintained as monolayer cultures in RPMI medium supplemented with 10% foetal calf serum, penicillin (100 I.U./ml) and streptomycin (100 μg/ml), sodium pyruvate (1 mM) and L-glutamine (2 mM). For chemosensitivity studies, cells were incubated in 96-well plates at a concentration of 7.5×10^3 cells per well and the plates were incubated for 24 hours at 37° C. and a 5% CO2 humidified atmosphere prior to drug exposure.
Complexes were dissolved in dimethylsulfoxide (DMSO) to provide stock solutions which were further diluted with media to provide a range of final concentrations. Drug-media solutions were added to cells (the final concentration of DMSO was less than 0.5% (v/v) in all cases) and incubated for 24 hours at 37° C. and 5% CO2 humidified atmosphere. […] A Thermo Scientific Multiskan EX microplate photometer was used to measure the absorbance in each well at 570 nm. Cell survival was determined as the absorbance of treated cells divided by the absorbance of controls and expressed as a percentage. The IC50 values were determined from plots of % survival against drug concentration. […]

Structure (SMILES): N.N.[Cl][Pt][Cl] [cisplatin]
- IC50: 5.7 ± 0.4 µM

Source: patent US20230090293A1, “ANTIBIOTICS” (ASTON UNIVERSITY, priority 2020, published 2023)
